± gives the standard deviation. The entries are a selection whose mix differs from that of the whole data set. Many of these values have a large error.

The values below come from the supplement of paper PMC10338343.

Assay [1] concerns MILI (PIWIL2) piRISC loaded with piRNA #1 (26 nt). Briefly: pre-steady-state target cleavage rate (min^-1); higher = faster piRNA-guided slicing of the target. Particulars: guide: piRNA #1 5'p-UGAGGUAGUAGGUUGUAUAGUAUCCA; auxiliary factor: 500 nM mouse GTSF1. Put shortly:
(§1)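 A transcribed, DNA-blocked target RNA library (0.1 nM) and 1 nM active affinity-purified piRISC bearing one synthetic guide were incubated in HEPES–potassium acetate buffer at 33 °C for 0–8 or 0–960 min, either with or without 500 nM GTSF1 partner protein. Uncleaved targets were sequenced, normalised to depth and to weakly complementary targets, and pooled over three trials, with k3 capped at 0.0001 min^-1. The pre-steady-state cleavage rate was derived with a burst-and-steady-state fit.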

The test system of assay [2] is MIWI (PIWIL1) piRISC loaded with piRNA #1 (30 nt). The assay is described as above. Particulars: guide: piRNA #1 5'p-UGAGGUAGUAGGUUGUAUAGUAUCCAGAGG; auxiliary factor: 500 nM mouse GTSF1. Put shortly: as §1
The subject of assay [3] is EfPiwi piRISC loaded with piRNA #1 (26 nt). Nature of the assay: pre-steady-state target cleavage rate (min^-1); guide: piRNA #1 5'p-UGAGGUAGUAGGUUGUAUAGUAUCCA; MIWI and MILI are mouse PIWI proteins and EfPiwi is from a freshwater sponge; tags in brackets are library labels; higher = faster piRNA-guided slicing of the target. Particulars: auxiliary factor: 500 nM Ephydatia muelleri Gtsf1. Put shortly:
as §1

As to GGAGACCUAUGAUAACAACCAACUUCCUCA, the results for the “pre-steady-state target cleavage rate” value in assay [1], in assay [2] and in assay [3] were 0.000655 ± 0.0066, 0.00028 ± 0.0063 and 0.000621 ± 0.01, respectively.

Turning to GGAGACCUAUGAUUACAACCUACUACGUCA, the figures for the “pre-steady-state target cleavage rate” value in assay [1], in assay [2] and in assay [3] were 0.00195 ± 0.0025, 0.00169 ± 0.0032 and 0.000551 ± 0.0036, respectively.

Turning to GGAGACCUAUGAUAUGUUGCUACUACCUCCA, the “pre-steady-state target cleavage rate” value is less than 0.0001 in assay [1], 0.00075 ± 0.0065 in assay [2] and 0.000831 ± 0.0075 in assay [3].

GGAGACCUAUGAUAACAUCCAACUACCUCA: the “pre-steady-state target cleavage rate” value in assay [1] worked out at 0.000732 ± 0.0056; in assay [2], 0.000202 ± 0.01; in assay [3], 0.000357 ± 0.0064.

For GGAGACCUAUGAUAUGUUGGUAGCUACCUCA, the “pre-steady-state target cleavage rate” value amounted to 0.000281 ± 0.019 in assay [1], 0.000431 ± 0.0073 in assay [2] and 0.000356 ± 0.015 in assay [3].

For GGAGACCUAUGAUUACAACCCACUACCUCA, the figures for the “pre-steady-state target cleavage rate” value in assay [1], in assay [2] and in assay [3] were 0.00245 ± 0.0035, 0.00121 ± 0.0035 and 0.00187 ± 0.0077, respectively.

GGAGACCUAUGUAUACAACCUACUUCGUCA: the “pre-steady-state target cleavage rate” value in assay [1] was 0.0106 ± 0.0032; in assay [2] it was 0.00233 ± 0.003; in assay [3], 0.000178 ± 0.013.

As to GGAGAGGAUACUAUACAACCUACUACCUUA, the “pre-steady-state target cleavage rate” value in assay [1] is 0.19 ± 0.018; in assay [2], 1.28 ± 0.066; in assay [3], 0.204 ± 0.073.

Regarding GGAGACCUAUGAUAUGUUGCUAUACCUCA, the “pre-steady-state target cleavage rate” value worked out at 0.000285 ± 0.023 in assay [1], 0.000392 ± 0.016 in assay [2] and 0.000558 ± 0.007 in assay [3].

On to GGAGACCUAUGAUAUCAACCAACUACGUCA, for which the entries for the “pre-steady-state target cleavage rate” value in assay [1], in assay [2] and in assay [3] were 0.000571 ± 0.0094, 0.00067 ± 0.0062 and 0.000797 ± 0.0068, respectively.

With GGAGACCUAUGAUAACAACCAACUACCUGA, the “pre-steady-state target cleavage rate” value worked out at 0.00128 ± 0.0041 in assay [1], 0.000304 ± 0.0048 in assay [2] and 0.000335 ± 0.01 in assay [3].

Regarding GGAGACCUAUGAUAACACACCUACUACCUCA, the figures for the “pre-steady-state target cleavage rate” value in assay [1], in assay [2] and in assay [3] were 0.000501 ± 0.015, 0.000145 ± 0.015 and 0.000742 ± 0.01, respectively.

Consider GGAGACCUAUGAAUACAACCUAGUACCACA, for which the figures for the “pre-steady-state target cleavage rate” value in assay [1], in assay [2] and in assay [3] were 0.00107 ± 0.0075, 0.000337 ± 0.009 and 0.00134 ± 0.0072, respectively.

On to GGAGACCUAUGAUUACAAGGUACUACCUCA, for which the “pre-steady-state target cleavage rate” value in assay [1] came out at 0.0041 ± 0.0031; in assay [2], 0.00114 ± 0.0084; in assay [3] it was 0.000686 ± 0.0088.

As for GGAGACCUAUGAUAACAAGCUUCUACCUCA, the “pre-steady-state target cleavage rate” value in assay [1] came to 0.00228 ± 0.0028; in assay [2] it was 0.000257 ± 0.0072; in assay [3], 0.000272 ± 0.0095.

Consider GGAGACCUAUGAUUUCAACGUACUACCUCA, for which the “pre-steady-state target cleavage rate” value in assay [1] is 0.00221 ± 0.0036; in assay [2], 0.00032 ± 0.0076; in assay [3], 0.00142 ± 0.0052.

As to GGAGACCUAACUAUACAACCAACUUCCUCA, the “pre-steady-state target cleavage rate” value in assay [1] was determined as 0.00214 ± 0.0076; in assay [2], 0.00178 ± 0.0065; in assay [3] it was 0.00234 ± 0.0066.

For GGAGACCUAUGAUUACAUACCUACUACCUCA, the “pre-steady-state target cleavage rate” value in assay [1] amounted to 0.000551 ± 0.0094; in assay [2], 0.000146 ± 0.019; in assay [3], 0.000811 ± 0.0071.

GGAGACCUAUGAUAUCAUCCUACUACCACA: the “pre-steady-state target cleavage rate” value worked out at 0.00107 ± 0.0047 in assay [1], 0.00024 ± 0.0095 in assay [2] and 0.000157 ± 0.026 in assay [3].

With GGAGACCUAUGAAUACAACCAUACUACCUCA, the results for the “pre-steady-state target cleavage rate” value in assay [1], in assay [2] and in assay [3] were 0.00155 ± 0.005, 0.000577 ± 0.0083 and 0.000211 ± 0.013, respectively.

In the case of GGAGACCUAUGAUAUGAACAUACUACCUCA, the “pre-steady-state target cleavage rate” value is 0.000153 ± 0.021 in assay [1], 0.000122 ± 0.021 in assay [2] and 0.000704 ± 0.011 in assay [3].

Regarding GGAGACCUAUGAUAUGUUGCUAGUUCCUCA, the “pre-steady-state target cleavage rate” value in assay [1] is 0.00054 ± 0.011; in assay [2] it was 0.00042 ± 0.012; in assay [3], 0.000445 ± 0.0074.

Regarding GGAGACCUAUGAUUAGAACCUACUACCUCA, the entries for the “pre-steady-state target cleavage rate” value in assay [1], in assay [2] and in assay [3] were 0.00226 ± 0.003, 0.000111 ± 0.029 and 0.000999 ± 0.0048, respectively.

Take GGAGACCUAUGAUAUGUACCGUACUACCUCA: the “pre-steady-state target cleavage rate” value stood at 0.00056 ± 0.0065 in assay [1], 0.000256 ± 0.0079 in assay [2] and 0.0012 ± 0.0068 in assay [3].

As to GGAGACCUAUGAUAACAACCUACUAGCUCA, the “pre-steady-state target cleavage rate” value is 0.00272 ± 0.003 in assay [1], 0.000612 ± 0.0076 in assay [2] and 0.000282 ± 0.0081 in assay [3].
